The values below come from patent CN116724055A.

Positions count from the first letter of the chain named. Results are given in words; binding and its absence hold for the method and conditions named. Some binding calls cover weakened binding; strength is not graded here.

Experiment [1] concerns the target 重组mfIL1RAP aa21-367 (食蟹猴 (Macaca fascicularis)). The experiment is described as follows: binding ELISA, coated mfIL1RAP aa21-367.
For experiment [2] the target is unchanged. The experiment is described as follows: ELISA on coated IL1RAP orthologs. On the technique in general: In an ELISA, binding on a coated surface is turned into a signal by an enzyme label.
For a further experiment, the target named is T1, 嵌合IL1RAP.H2 (鼠; 人) (UniProt Q61730).
T1 sequence: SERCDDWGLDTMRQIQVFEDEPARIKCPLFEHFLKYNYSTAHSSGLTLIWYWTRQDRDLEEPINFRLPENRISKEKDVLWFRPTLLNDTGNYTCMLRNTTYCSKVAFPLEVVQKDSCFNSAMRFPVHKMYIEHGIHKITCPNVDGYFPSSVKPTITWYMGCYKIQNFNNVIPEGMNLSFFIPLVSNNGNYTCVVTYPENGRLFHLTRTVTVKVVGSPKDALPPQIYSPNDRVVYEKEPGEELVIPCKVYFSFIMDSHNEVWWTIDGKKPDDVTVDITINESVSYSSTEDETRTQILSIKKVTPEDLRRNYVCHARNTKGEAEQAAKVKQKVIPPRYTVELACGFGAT
As to the kind of experiment: ELISA on coated chimeric murine/human IL1RAP.

B1: h48D2 VH2:VL2 (antibody, human IgG1, kappa, L234A L235A, V domains shown)
VH: EVQLVESGGALVQPGGSLRLSCIVSGPSLSHFDITWFRQAPGKGLEWVATISPGVSTYYASWAKSRFTISTDTSKNTLFLQMDSLRAEDTAVYYCARGGVGSSWKAFDLWGPGTLVTVSS
VL: QIVLTQSPATLSASVGDRVTITCQASESISTALAWYQQKPGKAPKLLIYKASTLPSGVPSRFSGSGSGTEFTLTISSLQPDDSATYYCQQGFSSGNVHNAFGQGTKLEIKR
With B1, the binding entry in experiment [1] is recorded as “binds”.

B2: h48D2 VH1:VL1 (antibody, human IgG1, kappa, L234A L235A, V domains shown)
VH: EVQLEESGGGLVKPGGSLRLSCAASGPSLSHFDITWVRQAPGKGLEWVSTISPGVSTYYASWAKSRFTISRDNSKNTLYLQMNSLRAEDTAVYYCARGGVGSSWKAFDLWGRGTLVTVSS
VL: B1 VL with Q1D, L4M, A9S, T10S, E70D, D81E, S83F, Q103G, L107V, E108V
Consider B2, for which the binding result in experiment [1] is “binds”.

B3: h48D2 VH2:VL1 (antibody, human IgG1, kappa, L234A L235A, V domains shown)
VH: B1 VH
VL: B1 VL with Q1D, L4M, A9S, T10S, E70D, D81E, S83F, Q103G, L107V, E108V
B3: the binding result in experiment [1] is “binds”.

B4: h48D2 VH5:VL2 (antibody, human IgG1, kappa, L234A L235A, V domains shown)
VH: QEQLEESGGGLVKPGGTLSLTCTVSGPSLSHFDITWIRQAPGSGLEWIGTISPGVSTYYASWAKSRVTISVDTSLNTVSLKLSSVTAADTATYFCARGGVGSSWKAFDLWGPGTLVTISS
VL: B1 VL
Turning to B4, the binding result in experiment [1] was “binds”.

B5: h48D2 VH2:VL3 (antibody, human IgG1, kappa, L234A L235A, V domains shown)
VH: B1 VH
VL: DILLTQTPSVVSASVGDRVTITCQASESISTALAWYQQKPGQAPRLLIYKASTLPSGVPSRFRGSGSGTDFTLTITSLQPEDFATYYCQQGFSSGNVHNAFGGGTRLEIKR
As to B5, the binding result in experiment [1] is given as “binds”.

B6: h48D2 VH4:VL1 (antibody, human IgG1, kappa, L234A L235A, V domains shown)
VH: QVQLQESGPGLVKPSETLSLTCTVSGPSLSHFDITWIRQPPGKGLEWIGTISPGVSTYYASWAKSRFTISVDTSKNQFSLKLTSVTAADTATYYCARGGVGSSWKAFDLWGPGTLVTVSS
VL: B1 VL with Q1D, L4M, A9S, T10S, E70D, D81E, S83F, Q103G, L107V, E108V
With B6, the binding result in experiment [1] is listed as “binds”.

B7: h48D2 VH4:VL2 (antibody, human IgG1, kappa, L234A L235A, V domains shown)
VH: B6 VH
VL: B1 VL
Turning to B7, in experiment [1], the binding result was “binds”.

B8: h48D2 VH2:VL4 (antibody, human IgG1, kappa, L234A L235A, V domains shown)
VH: B1 VH
VL: ELVMTQSPSSVSASVGDRVTITCQASESISTALAWYQQKPGKAPKLLIYKASTLPSGVPSRFSGSGSGTDFTLTINSLQPEDFATYYCQQGFSSGNVHNAFGGGTKVEIKR
For B8, the binding result in experiment [1] is given as “binds”.

B9: h48D2 VH2:VL5 (antibody, human IgG1, kappa, L234A L235A, V domains shown)
VH: B1 VH
VL: APVLTQSPATLEASVGDRVTITCQASESISTALAWYQQKPGQPPKLLIYKASTLPSGVPSRFSGSGSGTEFTLTISDLESDDAATYYCQQGFSSGNVHNAFGGGTEVVVKR
With B9, the binding entry in experiment [1] was “binds”.

B10: h48D2 VH5:VL1 (antibody, human IgG1, kappa, L234A L235A, V domains shown)
VH: B4 VH
VL: B8 VL with E1D, L2I, V11L, N76S, E108V
As to B10, in experiment [1], the binding entry is listed as “binds”.

B11: h48D2 VH3:VL2 (antibody, human IgG1, kappa, L234A L235A, V domains shown)
VH: B2 VH with E5L, K13L, N83S, R112L, L115T
VL: B1 VL
For B11, the binding entry in experiment [1] is given as “binds”.

B12: h48D2 VH1:VL2 (antibody, human IgG1, kappa, L234A L235A, V domains shown)
VH: B2 VH
VL: B1 VL
In the case of B12, in experiment [1], the binding entry was “binds”.

B13: h48D2 VH3:VL1 (antibody, human IgG1, kappa, L234A L235A, V domains shown)
VH: B2 VH with E5L, K13L, N83S, R112L, L115T
VL: B8 VL with E1D, L2I, V11L, N76S, E108V
B13: in experiment [1], the binding entry was “binds”.

B14: h48D2 VH3:VL3 (antibody, human IgG1, kappa, L234A L235A, V domains shown)
VH: B2 VH with E5L, K13L, N83S, R112L, L115T
VL: B5 VL
Regarding B14, the binding result in experiment [1] was “binds”.

B15: h48D2 VH1:VL4 (antibody, human IgG1, kappa, L234A L235A, V domains shown)
VH: B2 VH
VL: B8 VL
With B15, the binding result in experiment [1] is “binds”.

B16: h48D2 VH4:VL3 (antibody, human IgG1, kappa, L234A L235A, V domains shown)
VH: B6 VH
VL: B5 VL
Turning to B16, the binding entry in experiment [1] was “binds”.

B17: h48D2 VH5:VL3 (antibody, human IgG1, kappa, L234A L235A, V domains shown)
VH: B4 VH
VL: B5 VL
On to B17, for which the binding entry in experiment [1] was “binds”.

B18: h48D2 VH3:VL5 (antibody, human IgG1, kappa, L234A L235A, V domains shown)
VH: B2 VH with E5L, K13L, N83S, R112L, L115T
VL: B9 VL
Consider B18, for which the binding entry in experiment [1] is “binds”.

B19: h48D2 VH1:VL5 (antibody, human IgG1, kappa, L234A L235A, V domains shown)
VH: B2 VH
VL: B9 VL
Consider B19, for which the binding entry in experiment [1] is “binds”.

B20: h48D2 VH1:VL3 (antibody, human IgG1, kappa, L234A L235A, V domains shown)
VH: B2 VH
VL: B5 VL
Regarding B20, in experiment [1], the binding entry is “binds”.

B21: h48D2 VH3:VL4 (antibody, human IgG1, kappa, L234A L235A, V domains shown)
VH: B2 VH with E5L, K13L, N83S, R112L, L115T
VL: B8 VL
As for B21, in experiment [1], the binding entry is reported as “binds”.

B22: h48D2 VH4:VL4 (antibody, human IgG1, kappa, L234A L235A, V domains shown)
VH: B6 VH
VL: B8 VL
For the molecule B22, the binding entry in experiment [1] is reported as “binds”.

B23: h48D2 VH5.AP:VL4 (antibody, human IgG1, kappa, L234A L235A, V domains shown)
VH: B4 VH with A40P
VL: B8 VL
For B23, in experiment [1], the binding entry is given as “binds”.

B24: h48D2 VH4:VL5 (antibody, human IgG1, kappa, L234A L235A, V domains shown)
VH: B6 VH
VL: B9 VL
In the case of B24, the binding entry in experiment [1] is listed as “binds”.

B25: h48D2 VH5.SK:VL4 (antibody, human IgG1, kappa, L234A L235A, V domains shown)
VH: B4 VH with S43K
VL: B8 VL
As for B25, the binding result in experiment [1] is recorded as “binds”.

B26: h48D2 VH5.GL:VL4 (antibody, human IgG1, kappa, L234A L235A, V domains shown)
VH: B4 VH with A40P, S43K
VL: B8 VL
On to B26, for which the binding result (in experiment [1]; in experiment [2]; in the experiment with 嵌合IL1RAP.H2 (鼠; 人)) was “binds” each time.
